No constants are given. Whether binding was seen depends on the method and setting. In cells and extracts the contact can be indirect. Some results given as binding are weak or reduced against the parent protein; the word gives no strength.

The chains behind the UniProt entries cited, without tags or fusion partners.
UniProt O60563: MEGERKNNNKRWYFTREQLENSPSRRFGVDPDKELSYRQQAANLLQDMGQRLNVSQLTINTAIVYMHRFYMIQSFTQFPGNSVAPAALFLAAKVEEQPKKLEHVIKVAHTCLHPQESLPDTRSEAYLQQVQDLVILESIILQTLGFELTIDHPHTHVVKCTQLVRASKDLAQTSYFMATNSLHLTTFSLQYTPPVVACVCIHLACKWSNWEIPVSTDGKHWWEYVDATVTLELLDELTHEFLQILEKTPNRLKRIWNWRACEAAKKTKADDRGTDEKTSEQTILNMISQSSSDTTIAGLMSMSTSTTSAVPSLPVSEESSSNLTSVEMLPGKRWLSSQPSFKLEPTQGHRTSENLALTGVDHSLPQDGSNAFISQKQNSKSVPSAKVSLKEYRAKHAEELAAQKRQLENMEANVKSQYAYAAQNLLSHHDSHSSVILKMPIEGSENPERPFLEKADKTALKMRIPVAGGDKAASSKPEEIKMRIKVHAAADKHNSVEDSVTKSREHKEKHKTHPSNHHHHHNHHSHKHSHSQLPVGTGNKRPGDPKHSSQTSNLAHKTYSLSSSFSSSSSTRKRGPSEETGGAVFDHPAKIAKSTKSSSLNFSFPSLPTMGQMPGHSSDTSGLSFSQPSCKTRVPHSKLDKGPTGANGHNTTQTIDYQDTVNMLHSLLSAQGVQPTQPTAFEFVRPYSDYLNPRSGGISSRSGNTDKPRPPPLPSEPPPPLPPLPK
UniProt O94992: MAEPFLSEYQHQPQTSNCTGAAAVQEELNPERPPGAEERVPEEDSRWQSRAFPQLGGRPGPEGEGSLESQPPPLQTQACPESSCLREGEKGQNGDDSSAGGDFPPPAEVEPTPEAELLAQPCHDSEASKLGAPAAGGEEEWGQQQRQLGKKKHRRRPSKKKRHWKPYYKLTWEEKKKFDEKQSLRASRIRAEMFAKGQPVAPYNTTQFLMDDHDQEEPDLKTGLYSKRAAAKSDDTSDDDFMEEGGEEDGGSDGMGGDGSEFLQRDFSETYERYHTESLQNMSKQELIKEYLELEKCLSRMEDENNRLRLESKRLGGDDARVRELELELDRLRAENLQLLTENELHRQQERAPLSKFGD

This test deals with cyclin T1 (human (endogenous in 293)) (UniProt O60563). In words: co-IP.

As to “HEXIM1 protein (endogenous) (from UniProt O94992 1-359)”, the binding result was “binds”.

These data come from publication PMC1183248.
